# Inconclusive means that the source gave no clear call. Such entries were picked first, then a sample of the others. Activity calls are given as the source filed them.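 The calls were made as follows: active = compounds lowering cell ATP signal with a fitted half-effect dose at most twice the top valid dose; inconclusive = flat curve with 30 to 70% signal loss, or bad fit; inactive = wrong direction, flat within 30%, or weaker than limit.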
# Test: viability loss in HEK293 kidney cells – cell-based, cherry-picks, set 5, cytotoxicity control, dose response (AID 1053117);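 also: more negative means greater loss of ATP signal and more cytotoxicity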
# Conditions: HEK293T viability, CellTiter-Glo ATP luminescence, 72 h; at 26 µM (top of the series)
row,Structure (SMILES),"activity change, negative = cytotoxicity"
1,Cc1ccc(NC(=O)COC(=O)c2cc(Cl)ccc2[N+](=O)[O-])c(C)c1,inactive: -3.62%
2,CO[C@H]1CN(C)C(=O)c2ccc(NC(=O)Nc3ccc(Cl)c(Cl)c3)cc2OC[C@H](C)NC[C@H]1C,inconclusive: -97.6%

# Reference: PubChem BioAssay AID1053117 (Broad Institute, 2014)
